Measurements reported in article PMC8927349.

Chains of the proteins cited; added tags and fusions are not shown. Lines headed by an entry give the natural chain unless they say otherwise; changes in a name come on top.
UniProt Q6J4K2: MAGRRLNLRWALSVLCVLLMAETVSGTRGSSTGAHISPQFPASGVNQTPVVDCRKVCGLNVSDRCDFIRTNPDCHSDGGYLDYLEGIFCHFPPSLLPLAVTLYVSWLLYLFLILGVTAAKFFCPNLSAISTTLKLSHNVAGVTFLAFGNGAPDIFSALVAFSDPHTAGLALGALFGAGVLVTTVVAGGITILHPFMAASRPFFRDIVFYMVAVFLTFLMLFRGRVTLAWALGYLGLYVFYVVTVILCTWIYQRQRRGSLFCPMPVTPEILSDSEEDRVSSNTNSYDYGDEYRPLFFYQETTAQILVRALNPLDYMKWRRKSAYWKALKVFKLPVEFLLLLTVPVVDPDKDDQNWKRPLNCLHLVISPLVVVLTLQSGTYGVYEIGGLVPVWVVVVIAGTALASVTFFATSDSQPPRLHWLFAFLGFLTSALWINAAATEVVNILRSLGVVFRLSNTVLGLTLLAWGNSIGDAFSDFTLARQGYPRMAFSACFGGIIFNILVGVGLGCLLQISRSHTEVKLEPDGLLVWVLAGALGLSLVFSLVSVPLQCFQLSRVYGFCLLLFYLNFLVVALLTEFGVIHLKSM

Molecular target: GST-NCLX recombinant protein (UniProt Q6J4K2)
Test: pull-down; 1 µg GST-NCLX (or GST) on glutathione sepharose beads; Lon immunoprecipitated from transfected OEC-M1 lysate with Lon antibody and eluted with 0.1 M glycine pH 2.0 was added, mixed end on end for 4 h; washed thrice with lysis buffer; Western blot; both purified

binding: binds
B1: mitochondrial Lon (protein, UniProt P36776 68-959)
chain: FWEASSRGGGAFSGGEDASEGGAEEGAGGAGGSAGAGEGPVITALTPMTIPDVFPHLPLIAITRNPVFPRFIKIIEVKNKKLVELLRRKVRLAQPYVGVFLKRDDSNESDVVESLDEIYHTGTFAQIHEMQDLGDKLRMIVMGHRRVHISRQLEVEPEEPEAENKHKPRRKSKRGKKEAEDELSARHPAELAMEPTPELPAEVLMVEVENVVHEDFQVTEEVKALTAEIVKTIRDIIALNPLYRESVLQMMQAGQRVVDNPIYLSDMGAALTGAESHELQDVLEETNIPKRLYKALSLLKKEFELSKLQQRLGREVEEKIKQTHRKYLLQEQLKIIKKELGLEKDDKDAIEEKFRERLKELVVPKHVMDVVDEELSKLGLLDNHSSEFNVTRNYLDWLTSIPWGKYSNENLDLARAQAVLEEDHYGMEDVKKRILEFIAVSQLRGSTQGKILCFYGPPGVGKTSIARSIARALNREYFRFSVGGMTDVAEIKGHRRTYVGAMPGKIIQCLKKTKTENPLILIDEVDKIGRGYQGDPSSALLELLDPEQNANFLDHYLDVPVDLSKVLFICTANVTDTIPEPLRDRMEMINVSGYVAQEKLAIAERYLVPQARALCGLDESKAKLSSDVLTLLIKQYCRESGVRNLQKQVEKVLRKSAYKIVSGEAESVEVTPENLQDFVGKPVFTVERMYDVTPPGVVMGLAWTAMGGSTLFVETSLRRPQDKDAKGDKDGSLEVTGQLGEVMKESARIAYTFARAFLMQHAPANDYLVTSHIHLHVPEGATPKDGPSAGCTIVTALLSLAMGRPVRQNLAMTGEVSLTGKILPVGGIKEKTIAAKRAGVTCIVLPAENKKDFYDLAAFITEGLEVHFVEHYREIFDIAFPDEQAEALAVER

These are yes or no findings as the source states them, for the method shown. In cells and extracts the contact can be indirect. A result given as binding can be weak or reduced; the word gives no strength.
